Measured values reported in the supplement of paper PMC3334620.
In all, about 33,000 sequences were measured (“E-score (-0.5 to 0.5)”: median about -0.0014, highest 2% from about 0.25 on). This is one part of the list.

target: T1, Cad1 (UniProt P24813); assay: PBM E-score (8-mer binding enrichment) (E-score (-0.5 to 0.5)); higher = stronger / more preferred TF binding; conditions: protein concentration: 100 nM; construct: GST-full length
T1 sequence: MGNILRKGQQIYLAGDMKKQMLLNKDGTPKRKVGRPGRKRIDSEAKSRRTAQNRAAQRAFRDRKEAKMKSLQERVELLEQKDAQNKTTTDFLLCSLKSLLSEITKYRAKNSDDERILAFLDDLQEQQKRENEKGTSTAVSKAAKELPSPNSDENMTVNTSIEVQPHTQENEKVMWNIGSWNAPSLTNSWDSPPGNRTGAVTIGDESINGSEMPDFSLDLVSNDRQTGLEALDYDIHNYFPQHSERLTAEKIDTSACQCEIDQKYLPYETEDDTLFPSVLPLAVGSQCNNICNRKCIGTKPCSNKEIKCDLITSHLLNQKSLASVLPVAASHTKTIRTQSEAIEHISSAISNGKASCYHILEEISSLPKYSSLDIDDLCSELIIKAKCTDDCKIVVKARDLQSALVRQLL
Summary of the method: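 Universal all-10-mer Agilent arrays, fresh or stripped once, were converted to double-stranded form by primer extension. GST-tagged yeast transcription factors from PURExpress in vitro transcription/translation, full-length or DNA-binding domain only, were applied at about 100-200 nM and detected with fluorescent anti-GST. After masliner normalisation, the Universal PBM Analysis Suite scored each ungapped eight-base word together with its reverse complement by E-score.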

Sequence	PBM E-score
GGAAAACA	0.18
GATTGGGC	0.0731
CTCTATCA	-0.0671
CAAACGTA	0.158
ACTGACCT	-0.056
GTACCGTA	-0.0406
GCGTCAGC	0.156
GCTTGCCC	-0.263
CGCTATAC	0.0438
AGGCTACC	-0.0565
CAGTACGG	-0.132
ATGTTTTG	-0.0921
GAGAATTA	0.133
GTATGTTA	0.0252
AAGATATT	0.153
CGACTCGC	-0.116
GATTAGTA	0.31
ACCTCCGG	0.107
AGAATCCA	-0.0993
GGGGAATA	0.00396
TAAAACAA	0.0793
GATTAATA	0.354

Sequence	PBM E-score
ACCAGACC	-0.0167
CCAACGAC	-0.0828
ATAACGAC	0.189
ATCTAAGC	0.0466
CATACTAG	0.129
ATGTTGCG	-0.0325
AGATCAAC	0.00235
AGGTACCA	-0.0873
GCCGAGTA	-0.104
ATCCAACA	0.01
CCTGTATC	-0.0801
AAGGGAAA	-0.151
CCGAAGCG	-0.22
AACGGGGG	-0.323
ATGGTGTG	-0.0227
ACTTCCAC	0.00186
GCTTTCAC	0.0102
ACGAGGCC	-0.18
AACACAAC	0.143
AAAGCAAT	0.246
TGTCCTAA	-0.00923
AAATACCA	0.182

Copied from the list.
PBM E-score with ACTTCCAC reads 0.00186
PBM E-score with ACGAGGCC reads -0.18
PBM E-score with CCAACGAC reads -0.0828

The list goes on.

Sequence	PBM E-score
GAAGCTAC	0.152
GGGGCGAA	-0.162
AGAGTATC	-0.0123
GGCTTACA	0.229
AAGGGACA	-0.115
TACGTATA	0.133
GGATGGCA	0.169
ATTGTGTG	-0.0643
ACCTCCGA	-0.176
ACTGTGCG	0.168
ACAACTCT	-0.0986
ACAACTGA	-0.101
AGGTTTTG	-0.174
CCCACACG	-0.0387
CACCCCCG	-0.28
ACCGGTGA	-0.143
GCCCTCCA	-0.231
CCATTACG	-0.137
ATCTACCC	0.0218
ACGTGTCC	-0.12
GCTCAACC	-0.0661
GAAATTGA	0.139

Sequence	PBM E-score
AGTAAGAA	0.231
AAGAGAAA	-0.0361
CTAGCTGA	0.00706
AGTTATCC	0.126
TGCGGGAA	0.0933
AAGACCTG	-0.053
AAAGCGAG	0.128
GCATTCTA	0.0158
AAAGCACG	-0.143
CGAAAGGA	-0.142
CACCCCCA	-0.194
AACCGCTG	-0.0505
AATACCAG	0.144
CCAAACAC	0.0412
GCGTGGGA	-0.0577
GGGCCGGA	-0.286
ATACCAGA	0.0253
ACCAGACG	0.0499
GGTGCAAA	-0.121
ACCCTCCT	-0.27
